# According to patent publication US20220089777A1 (ARONORA, published 2022):
# Protein sequences, listed by entry. Tags and fused reporters are not part of them. Lines headed by an entry give the natural chain unless they say otherwise; changes in a name come on top.
# UniProt P03951: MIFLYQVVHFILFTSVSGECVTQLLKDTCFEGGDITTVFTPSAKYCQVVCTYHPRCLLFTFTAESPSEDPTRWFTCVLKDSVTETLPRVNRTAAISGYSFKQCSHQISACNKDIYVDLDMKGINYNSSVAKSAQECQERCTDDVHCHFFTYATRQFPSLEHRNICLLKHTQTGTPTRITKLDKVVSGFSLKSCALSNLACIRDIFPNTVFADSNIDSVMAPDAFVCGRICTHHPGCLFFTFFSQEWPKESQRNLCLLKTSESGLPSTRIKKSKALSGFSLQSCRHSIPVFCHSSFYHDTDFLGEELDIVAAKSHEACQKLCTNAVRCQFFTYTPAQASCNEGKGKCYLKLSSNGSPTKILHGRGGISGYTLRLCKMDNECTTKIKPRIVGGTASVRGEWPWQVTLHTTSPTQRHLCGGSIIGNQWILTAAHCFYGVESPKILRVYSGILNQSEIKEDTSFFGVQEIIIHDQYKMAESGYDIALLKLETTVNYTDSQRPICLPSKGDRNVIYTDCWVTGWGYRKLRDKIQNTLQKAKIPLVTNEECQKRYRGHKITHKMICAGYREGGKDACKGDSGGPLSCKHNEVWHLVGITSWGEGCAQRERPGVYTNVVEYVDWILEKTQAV
# No constants are given. Whether binding was seen depends on the method and setting. Some results given as binding are weak or reduced against the parent protein; the word gives no strength.
# B1: AB023, humanized anti-FXI monoclonal antibody (variant VH3/Vκ3, clone 3G3) (antibody, V domains shown)
# VH: QVQLQESGPGLVKPSETLSITCTVSGFSLTGYGIYWVRQPPGKGLEWLGMIWGDGRTDYNSALKSRVTISKDNSKSQVSLKLSSVTAADTARYYCARDYYGSKDYWGQGTTVTVSS
# VL: DIQMTQSPSSLSASVGDRVTITCKASQDVSTAVAWYQQKPGKAPKLLIYLTSYRNTGVPDRFSGSGSGTDFTFTISSLQPEDIAVYYCQQHYKTPYSFGGGTKVEIKR
# notes: Human IgG4 with S241P (Kabat) hinge modification, kappa light chain; also called A13023; A8023
# Biological target: human activated coagulation factor XI (FXIa) (human) (UniProt P03951)
# Experiment: solid phase binding assay, biotinylated AB023 on immobilized human FXIa
binder,measurement,value
B1,binding,binds
